Measured data: PubChem BioAssay AID1259254 (NCATS, 2017)

- Aim: 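Genome-wide screen for genes that prevent DNA re-replication in cancer cells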 (primary screen)
- System: human HCT116 colorectal cancer cells
- Reagents: single siRNA against human genes
- Timing: 3 days
- Detection: 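Nuclei stained with Hoechst and imaged; cell-cycle phase assigned by DNA content; G2 share scaled per plate, non-targeting siRNA 0%, GMNN siRNA 100%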
- Direction: G2 robust z-score and G2 cells, % of GMNN control: higher = more G2 cells, more excess DNA replication
- Hit rule: 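An siRNA counts as active if its G2 robust z-score lies at least 5 MADs above the screen median; here such calls match roughly 38% of GMNN control or more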
Shown is one part, drawn at random, of about 59,000 deposited reagents. Over the whole deposit, about 1,550 (2.6%) were called active. 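G2 share is only a proxy for re-replication; each gene was hit by three separate siRNAs, and active genes were retested.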 The numbers tell different reagents against one gene apart. Not all columns of the deposit are shown. Reagent sequences are not shown. Not stated in the record: the amount of reagent.

{"target": "CHCHD2P8", "siRNA no.": 1, "G2 robust z-score": 0.426, "G2 cells, % of GMNN control": 5.97, "call": "inactive"}
{"target": "CHCHD2P8", "siRNA no.": 2, "G2 robust z-score": -0.317, "G2 cells, % of GMNN control": 0.739, "call": "inactive"}
{"target": "CHCHD2P8", "siRNA no.": 3, "G2 robust z-score": -0.409, "G2 cells, % of GMNN control": 0.0883, "call": "inactive"}
{"target": "TEP1", "siRNA no.": 1, "G2 robust z-score": -1.04, "G2 cells, % of GMNN control": -4.35, "call": "inactive"}
{"target": "TEP1", "siRNA no.": 2, "G2 robust z-score": -0.187, "G2 cells, % of GMNN control": 1.65, "call": "inactive"}
{"target": "TEP1", "siRNA no.": 3, "G2 robust z-score": 0.377, "G2 cells, % of GMNN control": 5.62, "call": "inactive"}
{"target": "HPS4", "siRNA no.": 1, "G2 robust z-score": -0.281, "G2 cells, % of GMNN control": 0.992, "call": "inactive"}
{"target": "HPS4", "siRNA no.": 2, "G2 robust z-score": -0.565, "G2 cells, % of GMNN control": -1.01, "call": "inactive"}
{"target": "HPS4", "siRNA no.": 3, "G2 robust z-score": 0.204, "G2 cells, % of GMNN control": 4.41, "call": "inactive"}
{"target": "OR6M1", "siRNA no.": 1, "G2 robust z-score": 4.42, "G2 cells, % of GMNN control": 34.1, "call": "inactive"}
{"target": "OR6M1", "siRNA no.": 2, "G2 robust z-score": -0.344, "G2 cells, % of GMNN control": 0.545, "call": "inactive"}
{"target": "OR6M1", "siRNA no.": 3, "G2 robust z-score": -0.488, "G2 cells, % of GMNN control": -0.468, "call": "inactive"}

Laid out differently: results already given.
| target | siRNA no. | G2 robust z-score | G2 cells, % of GMNN control | call |
| --- | --- | --- | --- | --- |
| TEP1 | 2 | -0.187 | 1.65 | inactive |
| TEP1 | 3 | 0.377 | 5.62 | inactive |
